The text below walks through data of US10710962B2, “Zwitterionic reagents” (Siemens Healthcare Diagnostics Inc., priority 2010, dated 2020).

In data set [1] the test system is BGG-NSP-DMAE. The experiment in a line: Zwitterion label incorporation into acridinium ester labeled BGG, measured by mass spectroscopy. On the set-up: species or system bovine.
Data set [2] in a line: Fractional non-specific binding (fNSB) of chemiluminescent conjugates to M280 solid phase.
Data set [3] can be described thus: Fractional non-specific binding (fNSB) of chemiluminescent conjugates to PMP solid phase.
Data set [4] in a line: Fractional non-specific binding (fNSB) of chemiluminescent conjugates to M270 solid phase.
The mark [5] stands for this setting: NSP-DMAE-AVD labeled with 10 equivalents of the zwitterion compound.
Setting [6] is: NSP-DMAE-AVD labeled with 20 equivalents of the zwitterion compound.
The mark [7] stands for this setting: conjugate Z3-PFP Modified (25 equivalents).
Where [8] appears, read: conjugate Z3-PFP Modified (25 equivalents), listed as NSP-DMAE-avidin.

As to `C[N+](C)(CCCC(=O)Oc1c(F)c(F)c(F)c(F)c1F)CCCS(=O)(=O)[O-]` [Compound 2c], the “# of Zwitterion-Containing Compounds Incorporated by Conjugate” value in data set [1] (input 10 equivalents) is 9; in data set [1] (input 20 equivalents), 13. Further, the fNSB in data set [2] (setting [5]) is 8.8 × 10^−5; in data set [2] (setting [6]) it was 6.5 × 10^−5; in data set [3] (setting [5]), 4.8 × 10^−4; in data set [3] (setting [6]), 2.6 × 10^−4; in data set [4] (setting [5]), 3.2 × 10^−4; in data set [4] (setting [6]), 1.2 × 10^−4.
As to “NSP-DMAE-AVD: egg white avidin labeled with acridinium ester NSP-DMAE; tested unmodified and further labeled with zwitterion compounds”, the fNSB in data set [3] (NSP-DMAE-AVD, 0 zwitterionic labels in input (control), listed as NSP-DMAE-avidin) is given as 1.3×10^−3; in data set [3] (conjugate Unmodified) it was 1.3 × 10^−3; in data set [3] (setting [7]), 1.7 × 10^−4; in data set [3] (setting [8]), 1.7×10^−4; in data set [4] (conjugate Unmodified) it was 6.3 × 10^−2; in data set [4] (setting [7]) it was 5.2 × 10^−4. Moreover, the fNSB in data set [4] (setting [8]) is given as 5.2×10^−4.
Consider `C[N+](C)(CCCC(=O)Oc1c(F)c(F)c(F)c(F)c1F)CCS(=O)(=O)[O-]` [Compound 1d], for which the “# of Zwitterion-Containing Compounds Incorporated by Conjugate” value in data set [1] (input 10 equivalents) is listed as 5.3. In addition, the fNSB was 8.4 × 10^−5 in data set [2] (setting [5]); 4.1 × 10^−4 in data set [3] (setting [5]); 4.1×10^−4 in data set [3] (NSP-DMAE-AVD labeled with 10 equivalents of the zwitterion compound, listed as Z2-PFP); 2.3 × 10^−4 in data set [4] (setting [5]).
On to `CCCOP(=O)([O-])OCC[N+](C)(C)CCCC(=O)Oc1c(F)c(F)c(F)c(F)c1F` [Compound 4c], for which the “# of Zwitterion-Containing Compounds Incorporated by Conjugate” value in data set [1] (input 10 equivalents) is on record as 6; in data set [1] (input 20 equivalents), 8.4. Besides, the fNSB is recorded as 1.0 × 10^−4 in data set [2] (setting [5]); 7.7 × 10^−5 in data set [2] (setting [6]); 5.7 × 10^−4 in data set [3] (setting [5]); 5.7×10^−4 in data set [3] (NSP-DMAE-AVD labeled with 10 equivalents of the zwitterion compound, listed as ZPB-PFP); 3.4 × 10^−4 in data set [3] (setting [6]); 4.6 × 10^−4 in data set [4] (setting [5]). Also, in data set [4] (setting [6]), the fNSB is recorded as 1.6 × 10^−4.
In the case of `C[N+](C)(CCCCS(=O)(=O)[O-])CCCC(=O)Oc1c(F)c(F)c(F)c(F)c1F` [Compound 3c], the “# of Zwitterion-Containing Compounds Incorporated by Conjugate” value in data set [1] (input 10 equivalents) is 3.7. For the same compound, the fNSB in data set [2] (setting [6]) is reported as 8.7 × 10^−5; in data set [3] (setting [6]), 5.0 × 10^−4; in data set [3] (NSP-DMAE-AVD labeled with 20 equivalents of the zwitterion compound, listed as Z4-PFP), 5.0×10^−4; in data set [4] (setting [6]), 2.5 × 10^−4.
